Results from patent US7303889B2, “Ligand for G-protein coupled receptor GPR43 and uses thereof” (Euroscreen S.A., priority 2002, dated 2007).
For at least one compound, name, drawing or mass did not settle the structure.

What was measured:
Design in all cases: expressed in transfected cells
human GPR43 [1] = target: T1, human GPR43 (Homo sapiens, UniProt O15552); test: Structure-activity relationships of SCFAs and related compounds on human GPR43 (FIG. 12); details: compared with corresponding non-substituted active compounds
T1 sequence (O15552 1-330): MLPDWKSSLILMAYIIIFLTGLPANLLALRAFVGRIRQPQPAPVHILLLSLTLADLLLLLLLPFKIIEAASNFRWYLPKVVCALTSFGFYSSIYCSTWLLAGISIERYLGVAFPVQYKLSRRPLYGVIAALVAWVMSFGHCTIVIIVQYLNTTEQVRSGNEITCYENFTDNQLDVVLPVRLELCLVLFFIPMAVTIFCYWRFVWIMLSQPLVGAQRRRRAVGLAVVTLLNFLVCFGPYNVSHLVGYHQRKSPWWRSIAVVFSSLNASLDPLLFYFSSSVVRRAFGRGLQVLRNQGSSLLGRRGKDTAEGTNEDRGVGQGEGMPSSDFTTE

human GPR43 [2] = target: T1, human GPR43; test: Production of inositol phosphates in CHO-K1 cells stably expressing human GPR43; format: cell-based; details: PTX-pretreatment prior to stimulation; FIG. 10
human GPR43 [3] = target: T1, human GPR43; test: Accumulation of GTPγ[35S] binding on membranes from CHO-K1 cells expressing human GPR43; format: biochemical; details: for order of agonist potency: single concentration of each compound, FIG. 8
Description: For GPCRs such as GPR43, a measure of receptor activity is the binding of GTP by cell membranes containing receptors. In the method described by Traynor and Nahorski, 1995, Mol. Pharmacol. 47: 848-854, incorporated herein by reference, one essentially measures G-protein coupling to membranes by detecting the binding of labelled GTP. For GTP binding assays, membranes isolated from cells expressing the receptor are incubated in a buffer containing 20 mM HEPES, pH 7.4, 100 mM NaCl, and 10 mM MgCl2, 80 pM ^35S-GTPγS and 3 μM GDP. The assay mixture is incubated for 60 minutes at 30° C., after which unbound labelled GTP is removed by filtration onto GF/B filters. Bound, labelled GTP is measured by liquid scintillation counting. In order to assay for modulation of propionate-induced GPR43 activity, membranes prepared from cells expressing a GPR43 polypeptide are mixed with propionate, and the GTP binding assay is performed in the presence and absence of a candidate modulator of GPR43 activity. […] In this case, propionate-stimulated GTP binding is used as a standard. […] GTPase activity is measured by incubating the membranes containing a GPR43 polypeptide with γ^32P-GTP. Active GTPase will release the label as inorganic phosphate, which is detected by separation of free inorganic phosphate in a 5% suspension of activated charcoal in 20 mM H3PO4, followed by scintillation counting. Controls include assays using membranes isolated from cells not expressing GPR43 (mock-transfected), in order to exclude possible non-specific effects of the candidate compound.
The activity of acetate was examined in a membrane-based functional test.
The activity of other SCFA and related compounds (alcohols, aldehydes, cetone, di-acids . . . ) was evaluated using a single concentration of each in the membrane-cell based assay.

human GPR43 [4] = target: T1, human GPR43; test: Inhibition of forskolin-stimulated adenylate cyclase activity in CHO-K1 cells stably expressing human GPR43; format: cell-based; details: SCFA from 1 carbon to 4 carbon; FIG. 4
Description: Additional related compounds were tested using the same cells.
SCFA, ranging from 1 carbon to 4 carbon, were tested on CHO-K1 cells stably expressing the human GPR43 for their ability to inhibit the activity of adenylate cyclase stimulated with forskolin.

Structure (SMILES) | activity on human GPR43 (human GPR43 [1]) | PTX sensitivity of the accumulation of total inositol phosphates (human GPR43 [2]) | rank order of potency in the membrane-based GTPγ[35S] assay (human GPR43 [3]) | activation of the human receptor (maximal response compared to acetate and propionate) (human GPR43 [3]; data not shown) | order of agonist potency (human GPR43 [3]) | rank order of potency to inhibit forskolin-stimulated adenylate cyclase (human GPR43 [4])
N[C@@H](CC(=O)O)C(=O)O [aspartate] | abolished the signal | – | – | – | – | –
CCCC(=O)O [butyrate] | is active | non PTX sensitive | C2≧C3>C4>>C1 | partly activate | acetate=propionate>n-butyrate=isobutyrate=n-valerate=caproate>>formate>>pyruvate=acetoacetate | C2 (acetate)≧C3 (propionate)>C4 (butyrate)>>C1 (formate)
CC(=O)C(=O)O [pyruvate] | decreased but consistent activity | – | – | – | acetate=propionate>n-butyrate=isobutyrate=n-valerate=caproate>>formate>>pyruvate=acetoacetate | –
